Experimental data as given in doi:10.1101/2021.06.09.447721.
Results are given in words; binding and its absence hold for the method and conditions named. Binding seen in cells or lysates may run through a third protein. Some binding calls cover weakened binding; strength is not graded here.

Chains of the proteins cited; added tags and fusions are not shown. Residues count along the entry.
UniProt P23975, 570-617: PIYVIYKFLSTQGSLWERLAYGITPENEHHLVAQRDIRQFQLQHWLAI
UniProt P23975, whole entry: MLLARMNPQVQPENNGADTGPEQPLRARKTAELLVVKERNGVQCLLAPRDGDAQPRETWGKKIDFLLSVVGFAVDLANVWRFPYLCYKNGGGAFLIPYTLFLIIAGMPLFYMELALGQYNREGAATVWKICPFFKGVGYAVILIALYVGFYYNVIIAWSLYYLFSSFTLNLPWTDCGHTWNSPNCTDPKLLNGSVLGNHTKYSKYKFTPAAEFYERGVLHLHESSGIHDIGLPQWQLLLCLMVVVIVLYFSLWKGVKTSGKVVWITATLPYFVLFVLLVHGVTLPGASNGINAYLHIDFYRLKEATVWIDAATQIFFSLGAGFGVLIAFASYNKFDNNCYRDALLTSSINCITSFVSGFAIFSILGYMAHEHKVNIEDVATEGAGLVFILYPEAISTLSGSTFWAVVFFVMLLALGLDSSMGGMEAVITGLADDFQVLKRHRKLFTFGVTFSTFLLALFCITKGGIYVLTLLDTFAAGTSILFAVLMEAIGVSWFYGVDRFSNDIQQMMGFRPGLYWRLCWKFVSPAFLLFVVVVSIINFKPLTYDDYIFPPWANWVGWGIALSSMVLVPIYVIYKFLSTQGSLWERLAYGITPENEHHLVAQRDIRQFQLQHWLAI
UniProt Q01959, 579-620: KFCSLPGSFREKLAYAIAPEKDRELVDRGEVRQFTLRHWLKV
UniProt Q01959, whole entry: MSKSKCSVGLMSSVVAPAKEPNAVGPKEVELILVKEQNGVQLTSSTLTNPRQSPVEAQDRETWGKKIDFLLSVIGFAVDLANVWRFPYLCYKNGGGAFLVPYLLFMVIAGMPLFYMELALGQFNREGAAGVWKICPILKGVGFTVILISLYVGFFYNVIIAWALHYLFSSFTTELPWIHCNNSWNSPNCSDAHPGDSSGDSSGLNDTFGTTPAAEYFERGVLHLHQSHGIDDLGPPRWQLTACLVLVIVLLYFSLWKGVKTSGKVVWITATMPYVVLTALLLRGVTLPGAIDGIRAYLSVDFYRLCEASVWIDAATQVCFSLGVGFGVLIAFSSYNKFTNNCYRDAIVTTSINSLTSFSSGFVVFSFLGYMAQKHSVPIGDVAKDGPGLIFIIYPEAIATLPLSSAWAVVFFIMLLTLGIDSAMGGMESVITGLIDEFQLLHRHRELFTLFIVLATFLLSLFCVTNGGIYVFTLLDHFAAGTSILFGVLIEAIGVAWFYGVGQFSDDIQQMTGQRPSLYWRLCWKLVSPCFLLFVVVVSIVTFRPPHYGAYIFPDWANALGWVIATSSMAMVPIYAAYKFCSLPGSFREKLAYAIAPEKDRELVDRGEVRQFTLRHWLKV
UniProt P30531, whole entry: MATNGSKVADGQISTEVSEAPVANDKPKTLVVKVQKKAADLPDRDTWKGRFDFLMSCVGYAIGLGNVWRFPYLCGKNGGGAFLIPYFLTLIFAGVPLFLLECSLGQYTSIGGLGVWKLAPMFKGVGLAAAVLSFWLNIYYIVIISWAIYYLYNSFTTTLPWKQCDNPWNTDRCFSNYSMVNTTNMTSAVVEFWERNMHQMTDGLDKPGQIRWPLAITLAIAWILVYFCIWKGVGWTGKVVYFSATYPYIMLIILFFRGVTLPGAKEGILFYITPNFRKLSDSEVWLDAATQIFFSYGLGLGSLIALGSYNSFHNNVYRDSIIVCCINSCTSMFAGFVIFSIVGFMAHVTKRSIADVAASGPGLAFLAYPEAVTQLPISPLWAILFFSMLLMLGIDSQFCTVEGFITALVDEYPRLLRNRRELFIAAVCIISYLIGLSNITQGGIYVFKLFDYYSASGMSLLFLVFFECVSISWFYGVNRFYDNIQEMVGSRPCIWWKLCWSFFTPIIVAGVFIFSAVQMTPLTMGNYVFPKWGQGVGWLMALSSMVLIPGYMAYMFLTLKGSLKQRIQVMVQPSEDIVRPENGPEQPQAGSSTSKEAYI

How the values were obtained:
[1] = biological target: GST-hNET-Ct (human) (UniProt P23975); assay: pull-down
[2] = biological target: GST-hDAT-Ct (human) (UniProt Q01959); assay: pull-down
[3] = biological target: YFP-hNET (human) (UniProt P23975); assay: co-IP
[4] = biological target: YFP-hDAT (human) (UniProt Q01959); assay: co-IP
[5] = biological target: YFP-hGAT1 (human) (UniProt P30531); assay: co-IP

Measured: binding

B1: p31^COMET (protein, UniProt Q15013 1-274)
chain: MAAPEAEVLSSAAVPDLEWYEKSEETHASQIELLETSSTQEPLNASEAFCPRDCMVPVVFPGPVSQEGCCQFTCELLKHIMYQRQQLPLPYEQLKHFYRKPSPQAEEMLKKKPRATTEVSSRKCQQALAELESVLSHLEDFFARTLVPRVLILLGGNALSPKEFYELDLSLLAPYSVDQSLSTAACLRRLFRAIFMADAFSELQAPPLMGTVVMAQGHRNCGEDWFRPKLNYRVPSRGHKLTVTLSCGRPSIRTTAWEDYIWFQAPVTFKGFRE
binds: all assays above
